Test results published in article PMC9116668.
No constants are given. Whether binding was seen depends on the method and setting. Binding seen in cells or lysates may run through a third protein. Where a sequence is shown, tags or fusion partners need not be part of it.

Target: T1, V5-tagged Diedel (wild type, Die^RGD-V5) (Drosophila melanogaster) (UniProt Q9VAK8)
T1 sequence: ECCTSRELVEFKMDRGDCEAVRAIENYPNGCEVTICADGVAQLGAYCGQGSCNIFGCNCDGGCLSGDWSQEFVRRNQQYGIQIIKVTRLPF
Test: co-IP; S2R+ cells cotransfected with Cat-Flag and Die-V5, +/- UV 100 mJ/cm^2; native (non-crosslinking) conditions; lysis buffer with 0.1% SDS, 1% Triton, 150 mM NaCl; Protein G Sepharose overnight at 4°C; washes up to 500 mM NaCl; western blot with anti-Flag and anti-V5

- binding: no binding
B1: Flag-tagged Catalase (Flag-Cat) (enzyme, UniProt P17336 1-506)
chain: MAGRDAASNQLIDYKNSQTVSPGAITTGNGAPIGIKDASQTVGPRGPILLQDVNFLDEMSHFDRERIPERVVHAKGAGAFGYFEVTHDITQYCAAKIFDKVKKRTPLAVRFSTVGGESGSADTARDPRGFAVKFYTEDGVWDLVGNNTPVFFIRDPILFPSFIHTQKRNPQTHLKDPDMFWDFLTLRPESAHQVCILFSDRGTPDGYCHMNGYGSHTFKLINAKGEPIYAKFHFKTDQGIKNLDVKTADQLASTDPDYSIRDLYNRIKTCKFPSWTMYIQVMTYEQAKKFKYNPFDVTKVWSQKEYPLIPVGKMVLDRNPKNYFAEVEQIAFSPAHLVPGVEPSPDKMLHGRLFSYSDTHRHRLGPNYLQIPVNCPYKVKIENFQRDGAMNVTDNQDGAPNYFPNSFNGPQECPRARALSSCCPVTGDVYRYSSGDTEDNFGQVTDFWVHVLDKCAKKRLVQNIAGHLSNASQFLQERAVKNFTQVHADFGRMLTEELNLAKSSKF
